PubChem BioAssay AID504784, Drosophila RNAi Screening Center, 2011
The screen tested about 17,000 reagents; below is a random part of those with a known target gene and a result. 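Each column is one replicate's B-score; the combined score over replicates was not deposited, so single values may mislead.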 The numbers tell different reagents against one gene apart. A plus sign joins genes that one reagent is predicted to hit.

- Aim: 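Genome-wide knock-down for genes giving too much or too little stored lipid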 (primary screen)
- Cells: Drosophila Kc167 embryonic cells
- Reagent: long dsRNA against Drosophila genes, about 250 ng dsRNA per well
- Timing: 4 days
- Challenge: cells fed 400 µM oleic acid bound to BSA
- Measured: 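Cells imaged and segmented; ratio of lipid droplet area to nuclear area, log-transformed, then normalised as a B-score over the screen; higher means more stored lipid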
- Direction: droplet/nuclear area B-score: higher = more stored lipid (overstorage)

predicted target | dsRNA no. | droplet/nuclear area B-score, replicate 1 | droplet/nuclear area B-score, replicate 2 | droplet/nuclear area B-score, replicate 3
whd | 1 | -2.36 | -0.81 | –
CG11192 | 1 | 1.32 | -0.571 | –
CG17264 | 1 | -2.69 | 0.947 | –
CG7029 | 1 | -0.216 | -0.829 | –
fs(1)Yb | 1 | -0.307 | -0.326 | –
CG3309 | 1 | -0.62 | – | –
Acp76A | 1 | -0.381 | 0.386 | –
Osi5 | 1 | 1.07 | -2.44 | –
CG17258 | 1 | -1.28 | 0.124 | –
CG17258 | 2 | -0.288 | 0.398 | –
Nep7 | 1 | 1.82 | -0.0673 | –
azot | 1 | 1.12 | 1.38 | –
qm | 1 | -0.00552 | 3.18 | –
Blos1 | 1 | -0.168 | -0.529 | –
CG30350 | 1 | 0.518 | -0.286 | –
CG30037 | 1 | 1.68 | 0.238 | –
Jhbp16 | 1 | 2.56 | 0.855 | –
Acbp3 | 1 | 1.16 | 1.87 | –
Dph1 | 1 | 2.78 | -0.589 | –
Unc-115b + p24-2 + Unc-115a | 1 | 1.49 | 3.54 | –
CG10510 | 1 | -0.163 | 2.53 | 0.355
RpS16 | 1 | 3.42 | 1.54 | –
CG12128 + CG1407 | 1 | 0.812 | 1.79 | –
CG13193 | 1 | -0.966 | 0.00126 | –
CG6763 | 1 | -0.66 | -0.571 | –
eIF2Bgamma | 1 | 1.37 | -0.956 | –
CG18789 | 1 | -0.349 | 0.919 | –
Or65c | 1 | 2.78 | 0.76 | –
drpr | 1 | -0.0275 | -0.17 | –
drpr | 2 | 0.834 | 0.527 | –
CG12836 | 1 | 0.895 | -1.66 | –
CG5003 | 1 | -2.12 | – | –
Efr | 1 | 0.0202 | 0.803 | –
CG13325 | 1 | 0.51 | 0.661 | –
